Series [1] can be described thus: general procedure: Fmoc solid-phase peptide synthesis; Rink Amide MBHA resin; NovaSyn TGR Resin; HBTU/DIEA (printed for lauric acid coupling). The conditions noted are these: whole synthesis.
The nature of series [2]: general procedure: Fmoc solid-phase peptide synthesis; Rink Amide MBHA resin; HBTU/DIEA (printed for lauric acid coupling). The settings on record: whole synthesis, scale 14.1 μmol.

For “Ac-ARGRGRHPGKGVKSPGERSRYETSLNLTTKRFLEL-NH2”, in series [1] (scale 9.8 pnol), the crude mass was 38.7 mg and the isolated mass worked out at 5.6 mg.

In series [1] (scale 14.7 μmol), Ac-IRRRVYDALNVLMAM-NH2 returned a crude mass of 29.0 mg and an isolated mass of 5.9 mg.

In series [2], “Ac-Leu-Asn-Trp-Ala-Ala-Glu-Val-Leu-Lys-Val-Gin-Lys-Arg-Arg-Ile-Tyr-Asp-Ile-Thr-Asn-Val-Leu- Glu-Gly-Ile-Gin-Leu-Ile-Ala-NH2” showed a crude mass of 39.1 mg and an isolated mass of 7.5 mg.

Consider Ac-NESAYDQKNIRRRVYDALNVLMAMNIIS-NH2, for which, in series [1] (scale 14.1 μmol), the crude mass stood at 34.7 mg and the isolated mass was 6.3 mg.

Consider Ac-VLKVQKRRIYDITNV-NH2, for which, in series [1] (scale 14.7 μmol), the crude mass worked out at 40.7 mg and the isolated mass was 20.1 mg.

Consider “La-Asn-Glu-Ser-Ala-Tyr-Asp-Gln-Lys-Asn-Ile-Arg-Arg-Arg-Val-Tyr-Asp-Ala-Leu-Asn-Val-Leu-Met-Ala-Met-Asn-Ile-Ile-Ser-NH2”, for which, in series [1] (scale 20 μmol), the crude mass was 47.9 mg and the isolated mass is 2.2 mg.

Source of the values: patent US6713449B1 (Kyowa Hakko Kogyo Co., Ltd., priority 1996, dated 2004).
